# Screening data, single-dose tests

Sequences of proteins named here, by UniProt entry; tags and fusion partners are left off. Residues count along the entry.
UniProt I6X8D2, whole entry: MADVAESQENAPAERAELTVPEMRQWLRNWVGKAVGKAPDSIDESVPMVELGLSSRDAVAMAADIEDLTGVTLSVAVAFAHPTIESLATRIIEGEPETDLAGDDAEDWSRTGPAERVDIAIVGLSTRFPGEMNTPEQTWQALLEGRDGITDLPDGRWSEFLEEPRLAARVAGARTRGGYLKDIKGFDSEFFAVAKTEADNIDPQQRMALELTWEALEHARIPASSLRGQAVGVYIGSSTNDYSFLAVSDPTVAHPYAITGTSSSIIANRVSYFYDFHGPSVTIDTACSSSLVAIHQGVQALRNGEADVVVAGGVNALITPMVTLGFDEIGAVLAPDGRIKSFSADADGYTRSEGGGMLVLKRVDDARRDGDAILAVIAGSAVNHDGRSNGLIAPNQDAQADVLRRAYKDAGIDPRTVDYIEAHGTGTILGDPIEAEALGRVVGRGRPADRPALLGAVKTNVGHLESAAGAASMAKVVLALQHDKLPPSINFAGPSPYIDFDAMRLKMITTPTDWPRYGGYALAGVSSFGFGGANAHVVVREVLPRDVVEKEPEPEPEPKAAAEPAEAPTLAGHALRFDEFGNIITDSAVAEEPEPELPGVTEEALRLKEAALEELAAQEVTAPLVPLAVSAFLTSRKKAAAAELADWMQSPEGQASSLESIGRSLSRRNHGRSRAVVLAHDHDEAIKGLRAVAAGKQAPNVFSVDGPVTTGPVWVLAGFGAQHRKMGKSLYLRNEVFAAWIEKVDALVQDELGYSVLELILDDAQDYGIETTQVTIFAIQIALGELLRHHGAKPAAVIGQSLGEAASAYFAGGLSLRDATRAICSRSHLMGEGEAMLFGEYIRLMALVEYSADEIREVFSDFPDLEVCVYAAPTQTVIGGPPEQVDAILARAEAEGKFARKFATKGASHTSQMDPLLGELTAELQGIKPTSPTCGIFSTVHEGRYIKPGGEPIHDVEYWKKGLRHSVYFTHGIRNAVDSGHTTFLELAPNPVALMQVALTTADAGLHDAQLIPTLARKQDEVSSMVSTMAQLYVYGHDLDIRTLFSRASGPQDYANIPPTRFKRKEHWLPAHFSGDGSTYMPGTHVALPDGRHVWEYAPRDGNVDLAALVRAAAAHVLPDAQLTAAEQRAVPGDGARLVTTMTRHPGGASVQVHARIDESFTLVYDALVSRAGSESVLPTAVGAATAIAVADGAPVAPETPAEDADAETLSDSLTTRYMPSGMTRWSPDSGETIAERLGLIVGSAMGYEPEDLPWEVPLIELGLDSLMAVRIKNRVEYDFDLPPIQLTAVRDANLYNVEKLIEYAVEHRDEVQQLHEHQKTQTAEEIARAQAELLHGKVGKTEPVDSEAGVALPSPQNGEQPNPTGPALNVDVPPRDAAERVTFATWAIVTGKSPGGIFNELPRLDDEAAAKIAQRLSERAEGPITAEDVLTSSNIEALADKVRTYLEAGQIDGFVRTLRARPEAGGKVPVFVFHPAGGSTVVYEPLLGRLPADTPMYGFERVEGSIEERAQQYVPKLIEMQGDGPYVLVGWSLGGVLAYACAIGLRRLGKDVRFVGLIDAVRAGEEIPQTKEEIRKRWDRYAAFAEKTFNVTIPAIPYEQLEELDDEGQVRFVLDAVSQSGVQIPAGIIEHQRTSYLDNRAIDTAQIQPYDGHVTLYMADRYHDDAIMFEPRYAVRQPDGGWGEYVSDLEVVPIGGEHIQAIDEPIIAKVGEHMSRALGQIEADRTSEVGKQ
UniProt Q8IDJ8, 1-583: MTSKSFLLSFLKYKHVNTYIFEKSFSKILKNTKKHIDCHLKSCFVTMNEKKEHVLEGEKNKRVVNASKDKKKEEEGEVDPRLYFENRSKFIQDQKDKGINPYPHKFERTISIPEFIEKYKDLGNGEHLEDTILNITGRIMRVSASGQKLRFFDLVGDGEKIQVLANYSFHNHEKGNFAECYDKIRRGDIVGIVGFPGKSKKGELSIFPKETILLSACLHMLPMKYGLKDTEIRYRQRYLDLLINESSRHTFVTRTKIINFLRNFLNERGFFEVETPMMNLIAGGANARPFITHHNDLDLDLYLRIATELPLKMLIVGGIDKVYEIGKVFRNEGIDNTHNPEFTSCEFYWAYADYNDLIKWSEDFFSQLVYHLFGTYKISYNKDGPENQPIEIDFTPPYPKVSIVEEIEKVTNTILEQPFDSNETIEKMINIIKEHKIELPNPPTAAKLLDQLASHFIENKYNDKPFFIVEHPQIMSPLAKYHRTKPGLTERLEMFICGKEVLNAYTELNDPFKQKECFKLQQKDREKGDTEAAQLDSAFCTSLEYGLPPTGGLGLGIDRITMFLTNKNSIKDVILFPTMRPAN
UniProt A4I591, 1-473: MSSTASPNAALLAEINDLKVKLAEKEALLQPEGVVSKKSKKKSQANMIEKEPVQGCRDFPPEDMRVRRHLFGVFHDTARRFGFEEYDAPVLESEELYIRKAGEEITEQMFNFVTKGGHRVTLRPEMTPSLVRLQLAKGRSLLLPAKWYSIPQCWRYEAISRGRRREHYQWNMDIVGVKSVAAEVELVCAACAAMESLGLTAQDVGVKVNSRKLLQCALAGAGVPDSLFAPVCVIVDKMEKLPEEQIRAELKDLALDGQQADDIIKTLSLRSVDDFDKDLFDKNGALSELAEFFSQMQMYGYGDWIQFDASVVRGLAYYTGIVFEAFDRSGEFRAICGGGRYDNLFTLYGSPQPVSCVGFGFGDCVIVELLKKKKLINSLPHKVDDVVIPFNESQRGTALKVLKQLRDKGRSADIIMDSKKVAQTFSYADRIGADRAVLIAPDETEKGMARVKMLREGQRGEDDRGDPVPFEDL
UniProt Q4DA54, 1-478: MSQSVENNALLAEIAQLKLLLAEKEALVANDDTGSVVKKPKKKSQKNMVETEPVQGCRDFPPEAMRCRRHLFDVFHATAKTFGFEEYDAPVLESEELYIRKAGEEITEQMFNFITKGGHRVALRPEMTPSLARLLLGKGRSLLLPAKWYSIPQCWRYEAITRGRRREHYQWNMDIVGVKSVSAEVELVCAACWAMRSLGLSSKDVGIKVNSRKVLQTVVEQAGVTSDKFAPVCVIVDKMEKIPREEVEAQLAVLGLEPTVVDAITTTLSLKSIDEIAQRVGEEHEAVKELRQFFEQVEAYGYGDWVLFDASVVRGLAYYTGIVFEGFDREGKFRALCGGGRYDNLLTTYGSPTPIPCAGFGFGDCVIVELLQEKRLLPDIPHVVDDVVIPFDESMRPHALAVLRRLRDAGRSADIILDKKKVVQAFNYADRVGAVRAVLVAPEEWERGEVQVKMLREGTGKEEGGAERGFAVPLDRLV

Data taken from ChEMBL document CHEMBL3988442, “University of Dundee, Small-Polar-MMV Screening Library” (2021).

Pks13 thioesterase: 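Enzyme assay of the thioesterase domain of polyketide synthase 13; the read-out is not stated. Target: Polyketide synthase Pks13, Mycobacterium tuberculosis (UniProt I6X8D2). Concentration: 30 µM. The record gives no direction; the compounds picked for IC50 retests had high values, so higher reads as stronger inhibition. About 67,000 compounds were tested under these conditions; 0.46% (about 300) showed 50% or more at least once.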
PfKRS1: 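Lysine-tRNA ligase, Plasmodium falciparum 3D7 (UniProt Q8IDJ8). Enzyme assay of the cytosolic lysyl-tRNA synthetase in 384-well plates, read by luminescence. Concentration: 30 µM. Higher reads as stronger inhibition, judged from the few compounds that gave an IC50. Of about 69,000 compounds tested this way, about 49 (0.071%) reached 50% or more in at least one test.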
LiHisRS: 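Histidine-tRNA ligase, Leishmania infantum (UniProt A4I591). Enzyme assay of histidyl-tRNA synthetase; the read-out is not stated. Tested at 30 µM. Higher reads as stronger inhibition (inferred: compounds with an IC50 in retests scored well above the rest). The assay is labelled LdHisRS but filed under L. infantum. Of about 69,000 compounds tested this way, about 410 (0.6%) reached 50% or more in at least one test.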
TcHisRS: 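Enzyme assay of histidyl-tRNA synthetase; the read-out is not stated. Target: Histidine-tRNA ligase, Trypanosoma cruzi CL Brener (UniProt Q4DA54). Concentration: 30 µM. Higher reads as stronger inhibition (inferred: compounds with an IC50 in retests scored well above the rest). About 69,000 compounds were tested under these conditions; 0.045% (about 31) showed 50% or more at least once.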

Each number is a percent effect as filed.
How 0% and 100% were set is not recorded. Most values in the screen are low, and negative values occur.
This is an unselected part of the compounds tested.

| # | compound | Pks13 thioesterase | PfKRS1 | LiHisRS | TcHisRS |
|---|---|---|---|---|---|
| 1 | `Cc1cnn(-c2cccc(N3CCCCC3)n2)c1` | -9.023 | 1.931 | 4.225 | 4.972 |
| 2 | `Cn1cc(-c2nnn3c2COC(CNCc2ccccn2)C3)cn1` (configuration not stated) | -1.233 | 2.838 | -7.965 | 4 |
| 3 | `COc1ccc2cc(C3CN(C(=O)C4CCOCC4)CCO3)ccc2c1` (configuration not stated) | -17.45 | 0 | 26.92 | 3.333 |
| 4 | `COC(=O)CC1CCCCN1CC(=O)Nc1ccc(F)cc1Cl` (configuration not stated) | 6.022 | -3.705 | 3.529 | 3.015 |
| 5 | `Cc1cnc(NC(=O)c2cccc(CN(C)Cc3snnc3C)c2)s1` | -41.96 | 6.335 | 11.43 | 4.082 |
| 6 | `Cc1n[nH]c(C)c1NC(=O)NCc1ccccn1` | -38.97 | 3.243 | 7.254 | 0.5525 |
| 7 | `Cc1nn(CCC(=O)N2CCCC(OCc3cccnc3)C2)c(C)c1C` (configuration not stated) | -22.18 | 6.63 | 15.29 | 0.4484 |
| 8 | `Cc1cccnc1CN(C)C(C(=O)O)c1ccc(-c2ccn[nH]2)cc1` (configuration not stated) | -25.37 | 6.549 | 15.87 | -0.5128 |
| 9 | `Cc1nc(NC(=O)c2cccnc2N2CCOCC2)sc1C` | -6.894 | 1.212 | 14.4 | 3.922 |
| 10 | `COc1ccc(C2(C(=O)N3CC[C@@]4(O)CCNC[C@H]4C3)CCCC2)cc1` | -3.943 | 0.9626 | 4.918 | -2.02 |
| 11 | `CCOC1COC2(CCN(Cc3cccc(C#N)c3)CC2)C1` (configuration not stated) | -22.41 | -0.4599 | 7.692 | 3.883 |
| 12 | `CCOC(=O)Cn1ccc(NC(=O)Cc2ccccc2F)n1` | -2.949 | 0.2232 | -3.371 | 2.591 |
| 13 | `CS(=O)(=O)Cc1ccc(NC(=O)c2cccnc2)cc1F` | -21.47 | 5.764 | 14.29 | 2.062 |
| 14 | `Cn1cnnc1C1CCCN(C(=O)c2cc(Cl)c3c(c2)OCO3)C1` (configuration not stated) | -10.91 | 6.64 | 12.16 | -1.887 |
| 15 | `CC(Cc1ccsc1)NC(=O)c1cc(N2CCNC2=O)ccc1F` (configuration not stated) | -16.01 | 1.955 | 3.306 | 3.061 |
| 16 | `COc1ccccc1CC(=O)N1CCC(NCc2ccncc2)CC1` | -33.53 | 1.092 | 22.02 | 6.122 |
| 17 | `Cc1ccc([C@H]2CN(C(C)C)C[C@@H]2NS(=O)(=O)N2CCOCC2)o1` | -21.37 | 4.415 | 8.333 | 3.409 |
| 18 | `Cc1nn(C(=O)c2cccnc2)c(C)c1C` | -17.94 | -0.4553 | -4.11 | 1 |
| 19 | `Cc1nc(CN2CCC(N(C)Cc3noc(C(C)C)n3)C2)cs1` (configuration not stated) | -15.06 | -11.37 | 0 | 0 |
| 20 | `Cc1ccnc(NC(=O)C2CCN(CCCn3ccnc3C)CC2)c1` | -24.11 | 6.886 | 15.79 | 2.924 |
| 21 | `O=C1CCCC2=C1C(c1cccc(F)c1F)Nc1nonc1N2` (configuration not stated) | -19 | 2.131 | 6.25 | 3.125 |
| 22 | `Cc1ccc(CNC(=O)N(C)Cc2ccc([S+](C)[O-])cc2)s1` (configuration not stated) | -4.517 | 7.043 | 20.55 | 2.956 |
| 23 | `COc1cc(N2C[C@@H]3COC[C@@H](Cc4nnc(C)o4)[C@@H]3C2)ncn1` | -5.036 | -0.4377 | 3.96 | 1.508 |
| 24 | `CC(NC(=O)CCN1CCOC1=O)(c1ccccc1)c1ccccc1` | -32.36 | 1.283 | 16.67 | -1.266 |
| 25 | `O=C(C1CCOCC1)N1CC[C@@H](O)[C@@H]1Cc1ccncc1` | -25.59 | 3.538 | 26.61 | 5.288 |
| 26 | `CC(NC(=O)c1cn(CCC2CCCCC2)nn1)c1cnn(C)c1` (configuration not stated) | -22.5 | -2.901 | -9.89 | 0 |
| 27 | `Cc1nccc(C2CN(Cc3ccc(-c4ccccc4C(=O)O)o3)C2)n1` | 28.05 | 2.009 | 12.68 | 12.12 |
| 28 | `COC(=O)N1CCN(Cc2csc(-c3ncccn3)n2)CC1` | 11.84 | 4.575 | 15.18 | 11.67 |
| 29 | `Cc1nc(CC(=O)N2CCn3c(nnc3C(C)C)C2)cs1` | -22.2 | -1.841 | 12.84 | 6.471 |
| 30 | `CC(=O)N(Cc1noc(C)n1)C1CCN(Cc2cnc(C)s2)C1` (configuration not stated) | -9.372 | 0.7044 | 4.425 | 5.539 |
| 31 | `N#CCCCS(=O)(=O)NC1(c2ccc(F)cc2)CC1` | -5.839 | -6.43 | 6.522 | 5.941 |
| 32 | `c1cncc(CN2CC[C@@H]3[C@@H]2CCN3Cc2ccc3c(c2)OCO3)c1` | -13.11 | 5.644 | 19.42 | 5.825 |
| 33 | `CC(C)C(=O)NC1CCN(c2cccc(OC(F)(F)F)c2)C1=O` (configuration not stated) | -9.476 | 15.44 | 15.18 | 6.667 |
| 34 | `NC(=O)c1cc(C2CCCN(CCCOc3ccccc3)C2)n[nH]1` (configuration not stated) | 0.604 | -4.032 | 8.511 | 7.634 |
| 35 | `O=C1[C@H]2CN(C(=O)[C@H]3CCCO3)C[C@H]2CN1CCN1CCCC1` | -24.78 | 4.277 | 7.692 | 3.883 |
| 36 | `Cn1nc2c(c1NC(=O)c1ccc(C3CCCN3C3CCC3)s1)CCC2` (configuration not stated) | -10.82 | 3.827 | 19.57 | 2.97 |
| 37 | `O=C(NCC[S+]([O-])c1ccccc1)NCC(F)(F)F` (configuration not stated) | -6.769 | 4.936 | 10.96 | 4.211 |
| 38 | `Cc1nc(Cn2cc(C#N)c(=O)c3ccccc32)no1` | -7.919 | 1.706 | 6.667 | 5.882 |
| 39 | `Cc1cc(C(=O)Cn2cnnc2[S+](C)[O-])cc(C)c1F` (configuration not stated) | 3.802 | -3.815 | -4.918 | 4.651 |
| 40 | `O=C(CN1CCSC(c2ccccc2)C1)NCc1ccccn1` (configuration not stated) | -8.378 | 2.219 | -2.5 | 0 |
| 41 | `CN(C)c1nc2c(c(N3CCC4(CC3)CNC(=O)C4)n1)CCCC2` | -4.449 | 4.787 | 11.7 | 0 |
| 42 | `CC(C)N1CCC(CN2CCn3nc(CNC(=O)N(C)C)cc3C2)CC1` | 8.018 | 0.7231 | 10.4 | -0.5025 |
| 43 | `CC(C)c1nccn1-c1cccc(C2CCCN2S(=O)(=O)N(C)C)n1` (configuration not stated) | -31.77 | 12.16 | 14.29 | 7.527 |
| 44 | `CSCC(=O)N(Cc1ccccn1)Cc1ccccc1C` | -42.19 | 0.3497 | 12.9 | 5.844 |
| 45 | `Cc1noc(C)c1CNC(C(=O)N1CCOCC1)C(C)C` (configuration not stated) | 20.12 | 3.092 | 5.983 | 2.222 |
| 46 | `CC(C)c1nnc2n1CCN(C(=O)c1ccc(Cn3cccc3)cc1)C2` | -19.98 | 13.57 | 14.88 | 0 |
| 47 | `Cc1cccc(CN2CCC(c3csc4nccn34)CC2)n1` | 1.906 | -0.9823 | 11.51 | 10.34 |
| 48 | `CNc1cncc(C2CCCN2c2cc(C)ncn2)n1` (configuration not stated) | 55.04 | -0.4944 | 8 | -2.996 |
| 49 | `CC(C)c1ncc2c(n1)CN(Cc1nnc(Cc3ccccc3)o1)CC2` | -10 | 0.6343 | 33.03 | 16.62 |
| 50 | `Fc1cccc(NCc2ncc[nH]2)c1` | -33.65 | 1.819 | 20.51 | -0.5405 |
| 51 | `CCn1cnnc1CNC(=O)N1CCN(c2cccc(OC)c2)CC1` | -9.619 | 3.466 | 10.96 | 9.16 |
| 52 | `Cc1ccc(C(=O)N2CCC(=O)N(CC3CC3)C(C(C)C)C2)c(=O)[nH]1` (configuration not stated) | 2.603 | 8.235 | 5.714 | 3.093 |
| 53 | `Cc1cc(C2CCCN2Cc2ccc(S(=O)(=O)N3CCCC3)o2)on1` (configuration not stated) | -4.855 | 10.34 | 12.35 | 3.067 |
| 54 | `CCOc1ccc(CN(C)C2CCN(c3cc(C)nn3C)C2=O)cc1` (configuration not stated) | -4.934 | 0.4496 | 1.613 | 3.247 |
| 55 | `Nc1cc(-c2cccc3ccnn23)ccn1` | -12.47 | 2.67 | 6.667 | 1.19 |
| 56 | `CN(Cc1cccnc1)C1COC2(CCN(Cc3nccs3)CC2)C1` (configuration not stated) | -5.773 | 1.415 | -1.389 | 0 |
| 57 | `O=C(c1ccco1)N1CCCC2(CN(Cc3cccs3)CCO2)C1` (configuration not stated) | -11.64 | 2.324 | 19.44 | 2.488 |
| 58 | `O=C1CC(C(=O)NCc2ccccc2Oc2ccccc2F)CCN1` (configuration not stated) | 3.66 | -0.3755 | 9.574 | 6.061 |
| 59 | `COCCNS(=O)(=O)c1cccc2c1CN(C(=O)c1cc(C)on1)CC2` | -10.86 | 3.794 | 26.03 | 0.9901 |
| 60 | `CC(=O)NCC(=O)N1CCc2c(CN(C)C)nn(C(C)C)c2C1` | -10.1 | 3.932 | 15.52 | 7.595 |
| 61 | `Cc1nnc(CN(C)C(=O)C(CC(C)C)N2CCCCC2=O)n1C` (configuration not stated) | -39.63 | 3.042 | 10.34 | 1.571 |
| 62 | `c1cnc(-c2nn3c(CN4CCOCC4)nnc3s2)cn1` | -8.501 | 2.75 | 3.448 | 0.8696 |
| 63 | `CNC(=O)C1(c2cnccn2)CCCN1C(=O)c1ccccn1` (configuration not stated) | -8.278 | -0.5895 | 9.375 | 6.383 |
| 64 | `Cc1ncsc1C(=O)Nc1cccc(OCC(F)F)n1` | -18.98 | 6.187 | 14.29 | 0 |
| 65 | `Cc1csc(CN2CCC3(CC2)COC(COCC2CC2)C3)n1` (configuration not stated) | -12.35 | 2.268 | 21.78 | 7.538 |

7 of the entries, repeated:

{"compound": "COc1cc(N2C[C@@H]3COC[C@@H](Cc4nnc(C)o4)[C@@H]3C2)ncn1", "Pks13 thioesterase": -5.036, "PfKRS1": -0.4377, "LiHisRS": 3.96, "TcHisRS": 1.508}
{"compound": "CNc1cncc(C2CCCN2c2cc(C)ncn2)n1", "stereo": "configuration not stated", "Pks13 thioesterase": 55.04, "PfKRS1": -0.4944, "LiHisRS": 8, "TcHisRS": -2.996}
{"compound": "COC(=O)N1CCN(Cc2csc(-c3ncccn3)n2)CC1", "Pks13 thioesterase": 11.84, "PfKRS1": 4.575, "LiHisRS": 15.18, "TcHisRS": 11.67}
{"compound": "Cc1cccc(CN2CCC(c3csc4nccn34)CC2)n1", "Pks13 thioesterase": 1.906, "PfKRS1": -0.9823, "LiHisRS": 11.51, "TcHisRS": 10.34}
{"compound": "Cc1nn(CCC(=O)N2CCCC(OCc3cccnc3)C2)c(C)c1C", "stereo": "configuration not stated", "Pks13 thioesterase": -22.18, "PfKRS1": 6.63, "LiHisRS": 15.29, "TcHisRS": 0.4484}
{"compound": "Cc1nc(NC(=O)c2cccnc2N2CCOCC2)sc1C", "Pks13 thioesterase": -6.894, "PfKRS1": 1.212, "LiHisRS": 14.4, "TcHisRS": 3.922}
{"compound": "COCCNS(=O)(=O)c1cccc2c1CN(C(=O)c1cc(C)on1)CC2", "Pks13 thioesterase": -10.86, "PfKRS1": 3.794, "LiHisRS": 26.03, "TcHisRS": 0.9901}